Assay results published in PubChem BioAssay AID1487 (National Center for Advancing Translational Sciences (NCATS), 2009).
Some of the results follow. These are further read-outs of the screen, such as a control signal, another cell line or another target. No call is given for them. The list favours compounds with an active or inconclusive main result. The note in brackets gives the kind of curve behind each potency; many fits are weak.

Assay: qHTS Assay for Modulators of Lamin A Splicing
Details: HeLa LMNA splicing GFP/RFP minigene ratio, 48 h
Summary of the method: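 S3 HeLa cells stably expressing lamin A-EGFP splicing minigene plus DsRed2, 600 cells/well, 48 h compound exposure at 37C. Laser-scanning cytometry; analysed as GFP (500-530 nm)/RFP (575-640 nm) total intensity ratio; 0.5% DMSO vehicle.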

[1] = measured here: GFP splicing reporter channel
[2] = measured here: RFP viability control channel

Row | Compound | AC50 [1] | AC50 [2]
1 | CCOc1ccc(NS(=O)(=O)c2ccc(NC(=O)[C@@H]3CCCC[C@@H]3C(=O)O)cc2)cc1 | 12.6 µM [rising, partial curve] | 35.5 µM [rising, single point]
2 | C[C@H]1CC[C@H]2C(=O)N3[C@H](c4ccccc4Br)[C@@H](C)CC[C@H]3C(=O)N2[C@@H]1c1ccccc1Br | 35.5 µM [rising, single point] | 35.5 µM [rising, single point]
3 | COC(=O)c1c(NC(NC(=O)C(C)C)C(Cl)(Cl)Cl)sc2c1CCC2 (stereo not drawn) | 11.2 µM [rising, single point] | 15.8 µM [rising, single point]
4 | Cc1ccc(N)cc1-n1c(C)ccc1C | – | 8.91 µM [falling, partial curve, poor fit]
5 | Cc1cc(NC(=O)CSc2nnc(C)c(=O)n2N)no1 | – | 0.1 µM [falling, full curve, poor fit]
6 | COc1ccc(NC(=O)Cn2nnc(C(=O)NCCc3ccc(OC)c(OC)c3)c2N)cc1 | – | 3.16 µM [falling, full curve]
7 | CCCCN(C)S(=O)(=O)c1ccc(C(=O)Nc2nnc(CSC)o2)cc1 | 8.91 µM [falling, partial curve] | 35.5 µM [falling, single point]
8 | Cn1c(=O)n(C)c2cc(/C=N/NC(=S)NCc3ccccc3)ccc21 | 3.16 µM [falling, partial curve] | 3.55 µM [falling, single point]
9 | S=C(Nc1ccc(Oc2ccccc2)cc1)NC1CCCCC1 | – | 25.1 µM [rising, partial curve, poor fit]
10 | COc1cccc(-c2nc(-c3ccc(NC(=O)c4cccs4)cc3)no2)c1 | – | 14.1 µM [falling, single point]
11 | CCOC(=O)CSc1nnc(-c2cc(OC)c(OC)c(OC)c2)o1 | 0.1 µM [falling, full curve] | –
12 | CNC(=O)c1c(NC(=O)c2cc(=O)c3ccccc3o2)sc2c1CCC2 | 0.794 µM [rising, single point] | –
13 | Clc1ccc(-c2nnn(Cc3nc4ccccc4s3)n2)cc1 | – | 12.6 µM [rising, partial curve]
14 | O=S(=O)(NCc1ccncc1)c1ccc(S(=O)(=O)NCC2CCCO2)cc1 (stereo not drawn) | 3.55 µM [rising, partial curve] | 5.62 µM [rising, full curve]
15 | Cc1cc(=O)[nH]c(NN=C(CC(C)C)CC(C)C)n1 | – | 0.0891 µM [falling, full curve, poor fit]
16 | O=C(Nc1nc2c(s1)CCc1ccccc1-2)c1cccs1 | 22.4 µM [rising, partial curve] | 35.5 µM [rising, single point]
17 | O=C(CCl)N1CCN2C(=O)c3ccccc3C12c1ccc(Cl)cc1 (stereo not drawn) | – | 10 µM [rising, partial curve, poor fit]

Full records from above. Values in the order: AC50 [1]	AC50 [2]
Clc1ccc(-c2nnn(Cc3nc4ccccc4s3)n2)cc1 is listed with –	12.6 µM [rising, partial curve]
COc1ccc(NC(=O)Cn2nnc(C(=O)NCCc3ccc(OC)c(OC)c3)c2N)cc1 is listed with –	3.16 µM [falling, full curve]

The listing continues.

Row | Compound | AC50 [1] | AC50 [2]
18 | CCC(=O)OC1CC(C)N(C(=O)c2ccccc2)c2ccc(C)cc21 (stereo not drawn) | – | 35.5 µM [rising, single point]
19 | CCOC(=O)c1sc(-c2ccc(OC)cc2)cc1NC(C)=O | 12.6 µM [rising, single point] | 15.8 µM [rising, single point]
20 | CC1CC2=C(NC(=S)NC2c2cccc(F)c2)/C(=C/c2cccc(F)c2)C1 (stereo not drawn) | 11.2 µM [rising, partial curve, poor fit] | 22.4 µM [rising, partial curve]
21 | COc1ccc(Nc2nc(N3CCCCC3)nc3ccccc23)c(OC)c1 | – | 31.6 µM [rising, single point]
22 | CCCc1nc2c(sc3nc4c(cc32)COC(C)(C)C4)c(=O)n1CCN(CC)CC | 5.62 µM [falling, single point] | 5.62 µM [falling, single point]
23 | CCCCNS(=O)(=O)c1ccc2nc(SCC(=O)Nc3cc(C)cc(C)c3)[nH]c2c1 | 8.91 µM [rising, partial curve, poor fit] | 11.2 µM [rising, partial curve, poor fit]
24 | Cc1ccc(C)c(S(=O)(=O)NCC(c2ccc(N(C)C)cc2)N2CCOCC2)c1 (stereo not drawn) | – | 12.6 µM [rising, single point]
25 | O=C(C1CCCCC1)N(Cc1ccccc1)c1ccccn1 | 31.6 µM [rising, single point] | 35.5 µM [rising, single point]
26 | O=C(NCc1ccccc1Cl)C1CCCN(c2nc3ccccc3n3cccc23)C1 (stereo not drawn) | 20 µM [falling, single point] | 17.8 µM [falling, single point]
27 | CCOC(=O)c1c(C=O)c(C)n(Cc2ccc(C)cc2)c1C | – | 7.94 µM [rising, partial curve, poor fit]
28 | CN1/C(=C\C=N\NC(=O)c2ccccc2Br)C(C)(C)c2ccccc21 | – | 22.4 µM [rising, single point]
29 | N#CCCn1c(=O)c(-c2cc(F)cc(F)c2)nc2cnc(Nc3ccccc3)nc21 | – | 7.08 µM [falling, full curve, poor fit]
30 | COc1ccc(NC(=O)Nc2cn(CC(C)C)c(=O)c3ccccc23)c(OC)c1 | – | 7.94 µM [rising, partial curve, poor fit]
31 | COC(=O)CCN(C(=O)c1cc([N+](=O)[O-])cc([N+](=O)[O-])c1)c1ccccn1 | 5.62 µM [falling, partial curve, poor fit] | –
32 | Cc1cc(F)ccc1S(=O)(=O)Nc1ccccc1C(=O)Nc1ccccc1-c1nc2ccccc2[nH]1 | – | 20 µM [rising, single point]
33 | O=C(NCCc1ccc(F)cc1)C(=O)NCC(c1cccs1)S(=O)(=O)c1cccs1 (stereo not drawn) | 22.4 µM [falling, partial curve, poor fit] | 0.282 µM [falling, full curve, poor fit]
34 | CCc1ccc(-c2csc(NC(=O)C3CC(=O)N(c4ccc5c(c4)OCCO5)C3)n2)cc1 (stereo not drawn) | – | 22.4 µM [rising, single point]
